Data taken from article doi:10.1101/2022.11.11.516101.
Where two headings read alike, the source gives them in different places. These are yes or no findings as the source states them, for the method shown. In cells and extracts the contact can be indirect. Some entries that bind do so weakly or less than the wild type. Tags and fused reporters may be left off the sequences shown.

Sequences of proteins named here, by UniProt entry; tags and fusion partners are left off.
UniProt Q03195: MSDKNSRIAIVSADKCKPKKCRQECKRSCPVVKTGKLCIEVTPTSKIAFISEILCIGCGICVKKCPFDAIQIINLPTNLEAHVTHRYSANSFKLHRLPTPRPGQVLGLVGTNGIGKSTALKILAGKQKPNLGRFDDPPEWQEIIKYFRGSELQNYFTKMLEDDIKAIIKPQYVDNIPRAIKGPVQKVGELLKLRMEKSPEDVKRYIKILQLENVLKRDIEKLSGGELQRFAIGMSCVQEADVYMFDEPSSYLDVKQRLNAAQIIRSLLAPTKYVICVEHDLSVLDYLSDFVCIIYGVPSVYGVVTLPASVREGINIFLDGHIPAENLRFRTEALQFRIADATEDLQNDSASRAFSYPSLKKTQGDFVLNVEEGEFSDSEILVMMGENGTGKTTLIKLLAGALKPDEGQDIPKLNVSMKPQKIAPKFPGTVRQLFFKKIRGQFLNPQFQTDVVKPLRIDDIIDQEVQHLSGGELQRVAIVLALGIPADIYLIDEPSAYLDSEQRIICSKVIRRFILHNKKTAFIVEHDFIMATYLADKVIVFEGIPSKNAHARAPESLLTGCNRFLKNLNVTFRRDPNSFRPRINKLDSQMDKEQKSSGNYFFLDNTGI

T1: GFP-tagged Dom34 (S. cerevisiae) (UniProt P33309)
T1 sequence: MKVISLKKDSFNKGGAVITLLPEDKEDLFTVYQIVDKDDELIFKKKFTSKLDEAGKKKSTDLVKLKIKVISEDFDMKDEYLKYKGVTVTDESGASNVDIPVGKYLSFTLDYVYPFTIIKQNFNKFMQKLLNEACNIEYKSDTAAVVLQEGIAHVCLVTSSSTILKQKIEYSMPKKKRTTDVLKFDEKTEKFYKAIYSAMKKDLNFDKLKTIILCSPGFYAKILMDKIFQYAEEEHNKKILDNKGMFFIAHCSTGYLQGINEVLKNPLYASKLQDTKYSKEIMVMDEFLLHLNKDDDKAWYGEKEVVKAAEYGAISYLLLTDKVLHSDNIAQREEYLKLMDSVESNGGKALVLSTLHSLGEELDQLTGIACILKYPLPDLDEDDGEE

T2: preformed complex of GST-Dbp5 and Dom34-GFP (S. cerevisiae) (UniProt P33309+P20449)
T2 sequence 1: T1 sequence
T2 sequence 2: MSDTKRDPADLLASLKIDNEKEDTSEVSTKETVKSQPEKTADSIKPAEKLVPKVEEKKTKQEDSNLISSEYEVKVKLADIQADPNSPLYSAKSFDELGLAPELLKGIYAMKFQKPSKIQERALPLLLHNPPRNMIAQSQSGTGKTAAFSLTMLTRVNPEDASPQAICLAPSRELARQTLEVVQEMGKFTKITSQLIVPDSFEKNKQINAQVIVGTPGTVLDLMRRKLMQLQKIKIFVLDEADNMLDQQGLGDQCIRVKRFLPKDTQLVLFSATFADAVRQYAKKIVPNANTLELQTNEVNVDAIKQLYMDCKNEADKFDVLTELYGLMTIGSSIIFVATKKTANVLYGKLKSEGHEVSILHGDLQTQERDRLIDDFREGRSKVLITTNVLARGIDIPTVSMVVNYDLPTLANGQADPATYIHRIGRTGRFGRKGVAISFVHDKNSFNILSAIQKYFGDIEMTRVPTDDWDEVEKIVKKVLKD

B1: MYC-tagged Hbs1 (protein, UniProt P32769 1-611)
chain: MAYSDYSDGADDMPDFHDEGEFDDYLNDDEYDLMNEVFPTLKAQLQDYQGWDNLSLKLALFDNNFDLESTLAELKKTLKKKKTPKKPIAAANGSANVTQKLANISISQQRPNDRLPDWLDEEESEGERNGEEANDEKTVQRYYKTTVPTKPKKPHDISAFVKSALPHLSFVVLGHVDAGKSTLMGRLLYDLNIVNQSQLRKLQRESETMGKSSFKFAWIMDQTNEERERGVTVSICTSHFSTHRANFTIVDAPGHRDFVPNAIMGISQADMAILCVDCSTNAFESGFDLDGQTKEHMLLASSLGIHNLIIAMNKMDNVDWSQQRFEEIKSKLLPYLVDIGFFEDNINWVPISGFSGEGVYKIEYTDEVRQWYNGPNLMSTLENAAFKISKENEGINKDDPFLFSVLEIIPSKKTSNDLALVSGKLESGSIQPGESLTIYPSEQSCIVDKIQVGSQQGQSTNHEETDVAIKGDFVTLKLRKAYPEDIQNGDLAASVDYSSIHSAQCFVLELTTFDMNRPLLPGTPFILFIGVKEQPARIKRLISFIDKGNTASKKKIRHLGSKQRAFVEIELIEVKRWIPLLTAHENDRLGRVVLRKDGRTIAAGKISEITQ

Tests used:
Experiment in all cases: pull-down
[1] = molecular target: T1, GFP-tagged Dom34 (S. cerevisiae)
[2] = molecular target: T1, GFP-tagged Dom34 (S. cerevisiae); remark: listed apart in the source
[3] = molecular target: T2, preformed complex of GST-Dbp5 and Dom34-GFP (S. cerevisiae)

Molecule | binding [1] | binding [2] | binding [3]
recombinant GST-Rli1 (from UniProt Q03195 1-608) | binds | binds | 
B1 |  |  | binds
